Measurements: PMC5643531
Results are given in words; binding and its absence hold for the method and conditions named. Binding seen in cells or lysates may run through a third protein. A result given as binding can be weak or reduced; the word gives no strength. Sequences can lack the tags named with a protein.

Legend:
[1] = target: Frizzled8 receptor, Myc tag (Fz8-Myc) (zebrafish); assay: co-IP; HEK293 cells transfected with Flag-tagged OTG/Otg and Fz8-Myc constructs; lysis in 20 mM Hepes pH 7.9, 300 mM NaCl, 100 mM KCl, 10 mM EDTA, 0.2% NP-40, 10% glycerol; IP with anti-FLAG or anti-Myc antibody on protein A-agarose, immunoblot for Myc or Flag
[2] = target: Fz8ΔC-Myc (Fz8 lacking the cytoplasmic domain) (zebrafish); assay: as above

B1: OTTOGI (OTG), human, C-terminal Flag tag (OTG-Flag) (protein, UniProt Q8TB68 1-274)
chain: MVMSQGTYTFLTCFAGFWLIWGLIVLLCCFCSFLRRRLKRRQEERLREQNLRALELEPLELEGSLAGSPPGLAPPQPPPHRSRLEAPAHAHSHPHVHVHPLLHHGPAQPHAHAHPHPHHHALPHPPPTHLSVPPRPWSYPRQAESDMSKPPCYEEAVLMAEPPPPYSEVLTDTRGLYRKIVTPFLSRRDSAEKQEQPPPSYKPLFLDRGYTSALHLPSAPRPAPPCPALCLQADRGRRVFPSWTDSELSSREPLEHGAWRLPVSIPLFGRTTAV
B1 was tested, and the binding [1] was “binds” and the binding [2] was “binds”.
